Test results as given in the supplement of paper PMC11546906.
Counter-ions that a name gives are not always drawn. This is one part of the list. This data set is noisy: repeats of one test often differ as much as different tests do.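 A screen tested FDA-approved drugs combined with one-eighth-MIC colistin against a clinical mcr-1-positive, multidrug-resistant E. coli isolate, measuring OD600 at 24 h. Controls were untreated bacteria (growth) and broth alone (blank). An OD600 under 0.2 marked a combination as active.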

System: Escherichia coli 42 (mcr-1-positive clinical isolate)
Assay: OD600 after 24 h growth with compound plus colistin (absorbance units (OD600)); higher = more bacterial growth (less inhibition)
Conditions: first compound 25 µM; colistin concentration 0.5 ug/mL; incubation time 24 h; 37 °C

Cc1onc(-c2ccccc2)c1C(=O)N[C@@H]1C(=O)N2[C@@H]1SC(C)(C)[C@@H]2C(=O)O [Oxacillin sodium salt] + CCC(C)CCCC(=O)N[C@@H](CCN)C(=O)N[C@H](C(=O)N[C@@H](CCN)C(=O)N[C@H]1CCNC(=O)[C@H]([C@@H](C)O)NC(=O)[C@H](CCN)NC(=O)[C@H](CCN)NC(=O)[C@H](CC(C)C)NC(=O)[C@@H](CC(C)C)NC(=O)[C@H](CCN)NC1=O)[C@@H](C)O [colistin]
OD600: inactive: 1

CCCCc1oc2ccccc2c1C(=O)c1cc(I)c(OCCN(CC)CC)c(I)c1 [Amiodarone hydrochloride] + CCC(C)CCCC(=O)N[C@@H](CCN)C(=O)N[C@H](C(=O)N[C@@H](CCN)C(=O)N[C@H]1CCNC(=O)[C@H]([C@@H](C)O)NC(=O)[C@H](CCN)NC(=O)[C@H](CCN)NC(=O)[C@H](CC(C)C)NC(=O)[C@@H](CC(C)C)NC(=O)[C@H](CCN)NC1=O)[C@@H](C)O [colistin]
OD600: inactive: 1.08

O=C1Cc2cc(CCN3CCN(c4nsc5ccccc45)CC3)c(Cl)cc2N1 [Ziprasidone] + CCC(C)CCCC(=O)N[C@@H](CCN)C(=O)N[C@H](C(=O)N[C@@H](CCN)C(=O)N[C@H]1CCNC(=O)[C@H]([C@@H](C)O)NC(=O)[C@H](CCN)NC(=O)[C@H](CCN)NC(=O)[C@H](CC(C)C)NC(=O)[C@@H](CC(C)C)NC(=O)[C@H](CCN)NC1=O)[C@@H](C)O [colistin]
OD600: inactive: 0.938

N[C@@H](CC(=O)N1CCn2c(nnc2C(F)(F)F)C1)Cc1cc(F)c(F)cc1F [Sitagliptin] + CCC(C)CCCC(=O)N[C@@H](CCN)C(=O)N[C@H](C(=O)N[C@@H](CCN)C(=O)N[C@H]1CCNC(=O)[C@H]([C@@H](C)O)NC(=O)[C@H](CCN)NC(=O)[C@H](CCN)NC(=O)[C@H](CC(C)C)NC(=O)[C@@H](CC(C)C)NC(=O)[C@H](CCN)NC1=O)[C@@H](C)O [colistin]
OD600: inactive: 1.1
